Test results: paper PMC3814295
These are yes or no findings as the source states them, for the method shown. In cells and extracts the contact can be indirect. Some results given as binding are weak or reduced against the parent protein; the word gives no strength. Sequences can lack the tags named with a protein.

Amino acid sequences for entries named in this document (tags omitted).
UniProt Q06609: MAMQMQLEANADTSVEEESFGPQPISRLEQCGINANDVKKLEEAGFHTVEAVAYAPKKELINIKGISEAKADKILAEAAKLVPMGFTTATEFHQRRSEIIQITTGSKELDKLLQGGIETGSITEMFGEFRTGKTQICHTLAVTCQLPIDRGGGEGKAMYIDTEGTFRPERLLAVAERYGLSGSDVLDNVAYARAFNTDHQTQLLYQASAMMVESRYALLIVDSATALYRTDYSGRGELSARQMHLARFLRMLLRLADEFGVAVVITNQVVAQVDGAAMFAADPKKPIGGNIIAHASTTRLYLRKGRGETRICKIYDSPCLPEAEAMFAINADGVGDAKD

Target: T1, purified 6xHis-tagged RAD52 (human) (UniProt P43351)
T1 sequence: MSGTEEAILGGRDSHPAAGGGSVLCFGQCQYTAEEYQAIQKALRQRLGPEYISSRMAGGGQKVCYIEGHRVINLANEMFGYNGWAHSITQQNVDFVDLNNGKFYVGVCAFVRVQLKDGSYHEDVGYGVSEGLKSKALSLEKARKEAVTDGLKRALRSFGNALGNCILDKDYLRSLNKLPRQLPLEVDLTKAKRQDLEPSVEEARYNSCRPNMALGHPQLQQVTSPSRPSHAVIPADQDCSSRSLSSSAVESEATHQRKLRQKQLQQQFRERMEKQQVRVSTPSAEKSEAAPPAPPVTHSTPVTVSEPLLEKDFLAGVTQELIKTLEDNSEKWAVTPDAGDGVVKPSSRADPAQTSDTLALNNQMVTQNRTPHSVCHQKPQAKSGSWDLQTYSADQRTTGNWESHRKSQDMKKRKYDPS
Test: pull-down; 5 ug purified His-tagged RAD52 as bait incubated overnight with 1 mg benzonase-treated HeLa nuclear extract in Tris/Cl pH 7.6, 150 mM NaCl, 0.5% Triton X-100; captured with anti-His antibody-coupled Protein G (magnetic beads) 1 h at RT; Western blotting; only the target purified

- binding: binds
Substance: RAD51 (HeLa nuclear extract) (from UniProt Q06609 1-339)
